{
  "source": "the supplement of paper PMC7024190",
  "note": "Where a name gives a salt, the structure may show the parent alone. The list shows a part of the results. Repeats in this data set agree poorly, so a single value says little.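 The cells were human embryonic kidney cells carrying a Renilla luciferase gene, driven by the HSV-TK promoter, on a plasmid put in briefly by transfection. This is the first-round screen of about ten thousand compounds, looking for ones that raise reporter output.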",
  "data": [
    {"test_system": "HEK 293FT", "assay": "log relative Renilla luciferase luminescence (reporter expression vs reference, reference not stated) (log (base not stated)); higher = higher recombinant reporter expression", "conditions": "10 µM; time after transfection 48 h", "values": [
      {"molecule": "CCOC(=O)C(C)(C)Oc1ccc(Cl)cc1", "note": "[clofibrate]", "log": 0.138},
      {"molecule": "CC(=O)O[C@H]1CC[C@]2(C)C3CC[C@@]4(C)[C@H](C5CC(C6OC6(C)C)OC5O)CC[C@]4(C)C3=CC[C@H]2C1(C)C", "note": "(stereo not given in full) [turraeanthin]", "log": -0.0272},
      {"molecule": "CCC(NC(C)C)C(O)c1ccc(O)c(O)c1", "note": "(stereo not given) [isoetharine mesylate]", "log": -0.00861},
      {"molecule": "CCC(Cc1c(I)cc(I)c(N)c1I)C(=O)O", "note": "(stereo not given) [iopanic acid]", "log": 0.135},
      {"molecule": "CN1CCc2cccc3c2[C@H]1Cc1ccc(O)c(O)c1-3", "note": "[apomorphine hydrochloride]", "log": -0.146},
      {"molecule": "O=C1C=C2CC3(O)COc4c(ccc(O)c4O)C3=C2C=C1O", "note": "(stereo not given) [hematein]", "log": 0.13},
      {"molecule": "C[C@]12CC[C@@H]3c4ccc(O)cc4CC[C@H]3[C@@H]1CC[C@@H]2OC(=O)CCC1CCCC1", "note": "[estradiol cypionate]", "log": -0.16},
      {"molecule": "CCCCCCCCCCCCCCCC(=O)NCCO", "note": "[palmidrol]", "log": -0.0309},
      {"molecule": "CN1CCN(C2=Nc3cc(Cl)ccc3Nc3ccccc32)CC1", "note": "[clozapine]", "log": -0.671},
      {"molecule": "C=C1C2CC[C@@]3(C)[C@H](c4ccoc4)OC(=O)C[C@]13O[C@H]1CC(O)C(C)(C)C(CC(=O)OC)[C@@]21C", "note": "(stereo partly drawn) [3alpha-hydroxy-3-deoxyangolensic acid methyl ester]", "log": 0.261},
      {"molecule": "O=C(O)c1ccccc1Nc1ccccc1", "note": "[n-phenylanthranilic acid]", "log": -0.0578},
      {"molecule": "Nc1ncnc(Nc2ccc(Cl)cc2)n1", "note": "[chlorazanil hydrochloride]", "log": 0.0025},
      {"molecule": "CC(=O)O[C@H]1CC[C@]2(C)C3=C(CC[C@H]2C1(C)C)[C@]1(C)CC[C@H]([C@H](C)CCC=C(C)C)[C@@]1(C)CC3", "note": "[lanosterol acetate]", "log": 0.047},
      {"molecule": "CC1CCc2c(N3CCC(O)CC3)c(F)cc3c(=O)c(C(=O)O)cn1c23", "note": "(stereo not given) [nadifloxacin]", "log": -1.18},
      {"molecule": "Clc1ccc(COC(Cn2ccnc2)c2ccc(Cl)cc2Cl)c(Cl)c1", "note": "(stereo not given) [miconazole nitrate]", "log": -0.158},
      {"molecule": "Cc1cc(=O)n(-c2ccccc2)n1C", "note": "[antipyrine]", "log": -0.175},
      {"molecule": "NC12CC3CC(CC(C3)C1)C2", "note": "[amantadine hydrochloride]", "log": -0.0794},
      {"molecule": "CO[C@H]1O[C@@H]2O[C@@]3(C)CC[C@H]4[C@H](C)CC[C@@H]([C@H]1C)[C@@]24OO3", "note": "[artemether]", "log": -0.18},
      {"molecule": "O=c1c2ccccc2oc2ccccc12", "note": "[xanthone]", "log": 0.0557},
      {"molecule": "O=C(O)c1cc(O)c2c(c1)[C@@H]([C@H]1c3cc(C(=O)O)cc(O)c3C(=O)c3c(O[C@@H]4O[C@H](CO)[C@@H](O)[C@H](O)[C@H]4O)cccc31)c1cccc(O[C@@H]3O[C@H](CO)[C@@H](O)[C@H](O)[C@H]3O)c1C2=O", "note": "[sennoside b]", "log": -0.0266}
    ]}
  ]
}
